These are yes or no findings as the source states them, for the method shown. Where a sequence is shown, tags or fusion partners need not be part of it.
B1: DSR anti-defense 1 (DSAD1), His-tagged (natural protein)
chain: MIEIFKDTGATHDLVYHSKINTFVWDVEFDIVLSDSKELNKCYFVKCFNPYRINGKCDFAVSSIDIFSEGKRLLIENEFNFKITKAVHVATSKDVTEIVLHLSERISSPFPIVKEVVYLD
notes: phage-encoded DSAD1, WP_004399562; aa 1-9 not built in the cryo-EM model; Cloned into a pET-derived vector with an N-terminal His tag; also called anti-DSR2 protein; His-tagged DSAD1; source: E. coli Rosetta (DE3), purified (Ni-NTA, anion exchange, gel filtration); not shown: His, N-terminal, kept

Legend:
[1] = target: B1; test: AUC; sedimentation velocity, samples at 1 mg/mL in gel-filtration buffer (25 mM Tris-HCl pH 7.5, 150 mM NaCl, 2 mM DTT), SEDFIT and SEDPHAT; both purified
[2] = target: T1, tail tube protein (TTP) from phage SPR, His-tagged (phage SPR); test: pull-down; N-terminal His-tagged TTP or DSAD1 on Ni-NTA agarose beads, excess untagged DSR2 variants added, 1 h at 4 °C, 25 mM Tris-HCl pH 7.5, 300 mM NaCl, washes with 10 mM imidazole, SDS-PAGE with Coomassie staining; both purified
T1 sequence: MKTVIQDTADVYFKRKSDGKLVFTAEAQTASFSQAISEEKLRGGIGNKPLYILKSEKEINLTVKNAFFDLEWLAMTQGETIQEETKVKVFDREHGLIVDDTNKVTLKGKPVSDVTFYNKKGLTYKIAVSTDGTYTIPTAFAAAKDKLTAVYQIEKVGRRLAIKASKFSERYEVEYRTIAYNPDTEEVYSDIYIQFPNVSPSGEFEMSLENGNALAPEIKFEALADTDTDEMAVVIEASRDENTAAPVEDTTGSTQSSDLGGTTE

B1
binding [1]: no binding (tested: 1 mg/mL)

B2: DSR2 SIR2 domain-only protein (aa 1-303) (domain or fragment, UniProt P0DXN8 1-303)
chain: MVKVDLESKRYGEKLKEVFLMLDNNVVECIKEITESSRNGKLVFFVGAGVSTLSDYPQWWRLVDKYHEELYGSPKKGNYSSDEYLRIPQIFYNVKGEMAFDGILKDFFQVDKPTNPIHDKILAMNPAHVITTNYDNLIDTACWKRGKYFSVISAEEDVANATSSRYLLKVHGDFRKGFKGENVVLKEDDYLNYDQNYPLISNLMKTIIATHTIVFIGYGLGDYNINMLLNWVRKLQKDSFHKPFFIRTDPSPIENETLIYYENKGLRIIDAASLIDSNEYDYLERYSAVMDLLIESQENKFIT
binding [2]: no binding

Reference: publication PMC10973363, “Insights into the modulation of bacterial NADase activity by phage proteins” (Nature Communications, 2024)
